Results as given in paper PMC5768398.
These are yes or no findings as the source states them, for the method shown. Binding seen in cells or lysates may run through a third protein. Some entries that bind do so weakly or less than the wild type. For some assays here: Sequences can lack the tags named with a protein.

Chains of the proteins cited; added tags and fusions are not shown.
UniProt P63104: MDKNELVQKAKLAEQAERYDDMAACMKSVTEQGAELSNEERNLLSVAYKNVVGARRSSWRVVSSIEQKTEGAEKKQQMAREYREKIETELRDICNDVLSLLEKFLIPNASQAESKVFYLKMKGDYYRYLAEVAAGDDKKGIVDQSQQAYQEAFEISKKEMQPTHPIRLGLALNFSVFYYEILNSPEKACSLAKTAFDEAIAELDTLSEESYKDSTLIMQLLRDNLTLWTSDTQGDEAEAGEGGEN

Experiments:
[1] = target: T1, FoxM1 (human (endogenous in SiHa)) (UniProt Q08050); assay: co-IP; endogenous proteins in SiHa cell lysate; IP buffer (50 mM Tris-HCl pH 7.5, 150 mM NaCl, 1% Triton X-100, protease inhibitors); precipitated with anti-FoxM1 on Protein G agarose, Western analysis
T1 sequence: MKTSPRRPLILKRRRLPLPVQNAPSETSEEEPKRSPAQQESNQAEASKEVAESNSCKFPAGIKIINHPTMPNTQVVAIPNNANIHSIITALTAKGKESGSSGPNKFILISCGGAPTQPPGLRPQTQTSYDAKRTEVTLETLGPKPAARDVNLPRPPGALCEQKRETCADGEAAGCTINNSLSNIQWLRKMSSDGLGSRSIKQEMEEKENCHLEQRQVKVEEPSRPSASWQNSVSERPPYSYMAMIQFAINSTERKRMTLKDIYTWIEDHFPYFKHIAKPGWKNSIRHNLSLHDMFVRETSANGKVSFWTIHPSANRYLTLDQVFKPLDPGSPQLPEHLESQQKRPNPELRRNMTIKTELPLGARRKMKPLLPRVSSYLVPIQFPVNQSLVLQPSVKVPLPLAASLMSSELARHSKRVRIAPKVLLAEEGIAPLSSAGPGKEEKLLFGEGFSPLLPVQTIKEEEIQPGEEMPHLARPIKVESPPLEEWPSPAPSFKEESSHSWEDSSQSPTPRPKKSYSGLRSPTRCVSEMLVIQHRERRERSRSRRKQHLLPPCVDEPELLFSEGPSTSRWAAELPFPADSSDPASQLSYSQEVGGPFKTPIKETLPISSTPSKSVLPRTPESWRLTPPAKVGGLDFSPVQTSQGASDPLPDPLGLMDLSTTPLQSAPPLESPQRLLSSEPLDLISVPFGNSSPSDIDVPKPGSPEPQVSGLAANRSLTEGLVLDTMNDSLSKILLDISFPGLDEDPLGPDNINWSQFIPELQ

[2] = target: T2, Suppressor of fused (Sufu)-GFP (UniProt Q9UMX1); assay: co-IP; transfected HEK293T lysate; IP buffer (50 mM Tris-HCl pH 7.5, 150 mM NaCl, 1% Triton X-100, protease inhibitors); precipitated with anti-GFP on Protein G agarose, Western analysis
T2 sequence: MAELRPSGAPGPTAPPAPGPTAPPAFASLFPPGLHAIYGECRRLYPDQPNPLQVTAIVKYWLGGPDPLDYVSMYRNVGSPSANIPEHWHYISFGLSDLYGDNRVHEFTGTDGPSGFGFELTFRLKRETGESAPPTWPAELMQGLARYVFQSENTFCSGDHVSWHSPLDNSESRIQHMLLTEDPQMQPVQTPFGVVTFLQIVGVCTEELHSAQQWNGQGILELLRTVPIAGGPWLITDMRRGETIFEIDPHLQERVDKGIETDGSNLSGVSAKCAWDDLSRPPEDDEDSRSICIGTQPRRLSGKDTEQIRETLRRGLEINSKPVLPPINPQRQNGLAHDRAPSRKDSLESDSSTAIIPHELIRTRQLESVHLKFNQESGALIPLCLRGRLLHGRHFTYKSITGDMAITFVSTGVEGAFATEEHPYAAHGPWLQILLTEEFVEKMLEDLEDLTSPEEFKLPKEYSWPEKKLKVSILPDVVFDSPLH

binding [1] | binding [2] | Substance
binds |  | 14-3-3ζ (from UniProt P63104 1-245)
 | no binding | 14-3-3ζ-DDK (from UniProt P63104 1-245)
